According to patent US20230165970A1 (priority 2017, published 2023):

Assay: general procedure: solution-phase peptide synthesis; HATU/DIEA (EDC/HOBt for Int-5b)

| Substance | step yield (coupling step) [%] | step yield (late stage modification step) [%] | further results |
| --- | --- | --- | --- |
| tetra Boc PMBH-Gly-Thr-Dab | 76.6 | – | – |
| Penta-Boc-PMB-Decapeptide | – | – | step yield (coupling step, two steps): 94% |
| PEPTIDE1{[PrgPEG4].[Dab].[AHNA].[aza-Gly].[Dab].[Dab].[D-Cha].L.[Dab].[Dab].T}$PEPTIDE1,PEPTIDE1,5:R3-11:R2$$$V2.0 | – | 53.2 | – |
| Tri-Boc Polymyxin B Cycloheptapeptide | – | 65.0 | – |
| Boc-PMBH-[(γ-Boc)-aza-Dab]-Thr-[(γ-Boc)-Dab]-[((S)-hexyl)-Gly]-[Propargyl-PEG4-Acyl] | – | – | conjugation yield (conjugation step): 86% |
| PMBH-AzaGly-NH2 | – | 98.4 | – |
| Tri-Boc-PMBH-[(γ-Boc)-Aza-Dab]-[Z-Thr] | 44 | – | – |
| Tri-Boc-PMBH-[(γ-Boc)-Aza-Dab] | – | – | step yield (late stage modification step, over three steps): 44% yield over three steps |
| Tri-Boc-PMBH-[(γ-Boc)-aza-Dab]-Thr-[(γ-Boc)-Dab]-[Z-((S)-Hexyl)-Gly] | 61 | – | – |

Some peptides are written in HELM: one residue between dots, names in brackets for other building blocks, links after the first $.
